Experimental data taken from the supplement of paper PMC12823440, “Inhibitors supercharge kinase turnover through native proteolytic circuits” (Nature, 2025).
Counter-ions that a name gives are not always drawn. Some of the results follow. The calls rarely recur for the same compound in another form.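 In K562 cells expressing nanoluciferase-fused kinases, luminescence was recorded at 4 h intervals between 2 and 18 h, normalized as percent of control with DMSO at 100% and a positive control at 0%. A significant (2 sigma) signal drop marks a time point as decreased. The authors' rule for a hit is not shown and takes in more than the number of time points.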

By UniProt entry, the sequences of proteins in these tests, tags left out. Where a name states a change or a piece, a line headed by the entry shows the natural chain unless it says otherwise.
UniProt P48729: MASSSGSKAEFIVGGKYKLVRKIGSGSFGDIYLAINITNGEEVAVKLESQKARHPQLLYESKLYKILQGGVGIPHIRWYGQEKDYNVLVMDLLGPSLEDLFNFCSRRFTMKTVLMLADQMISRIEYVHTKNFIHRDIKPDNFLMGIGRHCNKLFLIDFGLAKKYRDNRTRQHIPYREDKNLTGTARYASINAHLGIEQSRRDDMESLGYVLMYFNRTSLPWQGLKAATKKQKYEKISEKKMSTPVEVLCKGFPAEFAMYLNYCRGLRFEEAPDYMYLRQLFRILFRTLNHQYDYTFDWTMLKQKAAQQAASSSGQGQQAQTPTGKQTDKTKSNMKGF
UniProt P48730: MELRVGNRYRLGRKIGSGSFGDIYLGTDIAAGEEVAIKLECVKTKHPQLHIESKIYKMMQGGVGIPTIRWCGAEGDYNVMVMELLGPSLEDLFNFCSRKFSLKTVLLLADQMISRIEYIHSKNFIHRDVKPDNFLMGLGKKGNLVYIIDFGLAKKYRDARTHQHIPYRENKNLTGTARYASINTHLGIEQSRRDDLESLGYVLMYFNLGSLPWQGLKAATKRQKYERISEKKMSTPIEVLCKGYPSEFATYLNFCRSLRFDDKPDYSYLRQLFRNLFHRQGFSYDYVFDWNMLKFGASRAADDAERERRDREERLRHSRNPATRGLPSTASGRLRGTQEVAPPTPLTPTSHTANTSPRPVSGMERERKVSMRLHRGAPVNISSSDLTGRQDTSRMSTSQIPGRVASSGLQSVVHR
UniProt Q08345: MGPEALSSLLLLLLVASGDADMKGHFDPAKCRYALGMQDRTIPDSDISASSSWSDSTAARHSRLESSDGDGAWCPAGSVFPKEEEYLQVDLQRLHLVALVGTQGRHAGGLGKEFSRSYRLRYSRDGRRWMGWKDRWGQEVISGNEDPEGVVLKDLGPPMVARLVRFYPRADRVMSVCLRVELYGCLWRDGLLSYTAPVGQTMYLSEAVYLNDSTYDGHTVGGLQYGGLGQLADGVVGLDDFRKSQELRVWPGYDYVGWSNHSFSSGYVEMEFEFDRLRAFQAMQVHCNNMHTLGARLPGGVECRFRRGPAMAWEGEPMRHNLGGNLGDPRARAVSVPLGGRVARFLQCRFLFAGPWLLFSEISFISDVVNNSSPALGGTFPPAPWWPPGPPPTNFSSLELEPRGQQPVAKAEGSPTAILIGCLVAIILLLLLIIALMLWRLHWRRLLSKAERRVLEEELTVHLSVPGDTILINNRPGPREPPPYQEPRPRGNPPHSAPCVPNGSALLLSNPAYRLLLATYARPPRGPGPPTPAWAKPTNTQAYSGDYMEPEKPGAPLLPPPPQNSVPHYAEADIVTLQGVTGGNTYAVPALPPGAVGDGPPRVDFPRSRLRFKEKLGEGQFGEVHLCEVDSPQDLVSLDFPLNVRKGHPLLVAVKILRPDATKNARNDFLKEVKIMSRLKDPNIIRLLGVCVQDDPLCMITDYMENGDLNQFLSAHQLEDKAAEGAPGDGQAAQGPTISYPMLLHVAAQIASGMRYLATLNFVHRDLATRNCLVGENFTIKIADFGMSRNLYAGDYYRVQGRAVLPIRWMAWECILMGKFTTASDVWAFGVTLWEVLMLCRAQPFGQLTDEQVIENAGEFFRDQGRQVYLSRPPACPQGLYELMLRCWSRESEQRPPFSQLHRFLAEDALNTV
UniProt Q9Y463, whole entry, looked up: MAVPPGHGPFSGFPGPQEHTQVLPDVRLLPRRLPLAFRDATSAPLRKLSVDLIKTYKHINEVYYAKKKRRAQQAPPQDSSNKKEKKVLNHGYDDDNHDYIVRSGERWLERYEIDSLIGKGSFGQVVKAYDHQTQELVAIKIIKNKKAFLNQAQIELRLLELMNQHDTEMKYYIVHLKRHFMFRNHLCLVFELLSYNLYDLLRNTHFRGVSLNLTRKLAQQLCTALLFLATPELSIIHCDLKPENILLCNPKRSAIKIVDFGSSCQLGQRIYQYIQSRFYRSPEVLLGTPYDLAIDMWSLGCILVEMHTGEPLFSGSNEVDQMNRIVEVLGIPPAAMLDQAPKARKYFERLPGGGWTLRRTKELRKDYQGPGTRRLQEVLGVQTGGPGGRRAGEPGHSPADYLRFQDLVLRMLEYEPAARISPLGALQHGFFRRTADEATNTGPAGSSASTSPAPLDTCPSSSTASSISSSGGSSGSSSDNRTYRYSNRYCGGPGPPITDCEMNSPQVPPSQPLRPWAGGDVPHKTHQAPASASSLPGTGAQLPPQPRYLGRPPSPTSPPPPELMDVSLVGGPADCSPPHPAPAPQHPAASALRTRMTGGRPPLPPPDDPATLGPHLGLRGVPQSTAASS
UniProt Q92630: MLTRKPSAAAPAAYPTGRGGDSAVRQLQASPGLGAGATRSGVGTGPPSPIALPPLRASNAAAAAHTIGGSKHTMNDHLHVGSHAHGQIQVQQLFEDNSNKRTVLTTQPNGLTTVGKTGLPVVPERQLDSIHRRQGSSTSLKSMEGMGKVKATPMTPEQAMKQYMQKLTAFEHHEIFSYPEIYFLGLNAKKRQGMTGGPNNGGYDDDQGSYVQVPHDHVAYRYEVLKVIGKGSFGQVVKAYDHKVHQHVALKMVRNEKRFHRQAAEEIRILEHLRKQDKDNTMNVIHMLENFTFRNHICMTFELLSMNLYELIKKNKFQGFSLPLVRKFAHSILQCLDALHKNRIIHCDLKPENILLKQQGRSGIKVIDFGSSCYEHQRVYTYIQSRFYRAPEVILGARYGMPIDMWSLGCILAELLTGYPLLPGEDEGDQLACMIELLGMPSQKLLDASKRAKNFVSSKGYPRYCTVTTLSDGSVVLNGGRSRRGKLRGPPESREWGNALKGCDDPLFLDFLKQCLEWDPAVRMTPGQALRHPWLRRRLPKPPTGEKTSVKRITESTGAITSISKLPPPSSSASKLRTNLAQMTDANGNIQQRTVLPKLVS

How the values were obtained:
Experiment in all cases: number of time points (of 5) at which kinase-Nluc abundance scored as decreased, DMSO-normalised (count); higher = more persistent destabilization
Conditions in all cases: K562; 2-18 h
CSNK1A1 = CSNK1A1 (UniProt P48729)
CSNK1D = CSNK1D (UniProt P48730)
DDR1 = DDR1 (UniProt Q08345)
DYRK1B = DYRK1B (UniProt Q9Y463)
DYRK2 = DYRK2 (UniProt Q92630)
EGFR = EGFR (UniProt P00533)
EGFR_G719S = EGFR_G719S (UniProt P00533)
EGFR_G719S_T790M = EGFR_G719S_T790M (UniProt P00533)
EGFR_L718V = EGFR_L718V (UniProt P00533)
EGFR_L858R = EGFR_L858R (UniProt P00533)

Measured: number of time points

Cc1cccc(Oc2cnc(=O)[nH]c2)c1 [Tolimidone] (10 µM)
0: all assays above

CN(CC(=O)N(Cc1ccc(C2CCCCC2)cc1)c1ccc(C(=O)NO)cc1)S(=O)(=O)c1c(F)c(F)c(F)c(F)c1F (2.5 µM)
2: EGFR_G719S
0: all other assays above

O=C(NCCN1CCOCC1)c1cc2c(Oc3ccc(NC(=O)C4(C(=O)Nc5ccc(F)cc5)CC4)cc3)ccnc2[nH]1 [Tyrosine kinase inhibitor] (10 µM)
0: all assays above

Cc1ccc2cc(-c3c(C)ccc(C(=O)c4c(-c5ccccc5)n(C)n(-c5ccccc5)c4=O)c3N)ccc2n1 (2.5 µM)
0: all assays above

C[C@]1(O)CCN(c2nc(N3C[C@H](O)[C@@H](O)C3)cc(C(F)(F)F)c2C#N)C1 (10 µM)
0: all assays above

2 compounds picked at random from the list so far, as already listed:
C[C@]1(O)CCN(c2nc(N3C[C@H](O)[C@@H](O)C3)cc(C(F)(F)F)c2C#N)C1 (10 µM)
0: all assays above

CN(CC(=O)N(Cc1ccc(C2CCCCC2)cc1)c1ccc(C(=O)NO)cc1)S(=O)(=O)c1c(F)c(F)c(F)c(F)c1F (2.5 µM)
2: EGFR_G719S
0: all other assays above

The results go on.

Nc1nc2ccc(Cl)cc2c2nc(-c3ccco3)nn12 (10 µM)
0: all assays above

COc1cc(Nc2ncc(F)c(Nc3ccc4c(n3)N(COP(=O)(O)O)C(=O)C(C)(C)O4)n2)cc(OC)c1OC [Fostamatinib (disodium hexahydrate)] (10 µM)
1: DDR1 | EGFR
0: all other assays above

Nc1nc(F)nc2c1ncn2[C@@H]1O[C@H](CO)[C@@H](O)[C@@H]1O [Fludarabine] (10 µM)
0: all assays above

Cc1c(NC(=O)c2cccn(-c3ccc(F)cc3)c2=O)ccc(Oc2ccnc(NC(=O)C3CC3)c2)c1C (2 µM)
3: DYRK2
1: DYRK1B
2: DDR1
0: all other assays above

O=S(=O)(NCCCN1c2ccccc2CCc2ccc(Cl)cc21)c1ccc(OC(F)(F)F)cc1 (2.5 µM)
0: all assays above

CNC(=O)c1c(F)cccc1Nc1nc(Nc2cc3c(cc2OC)CCN3C(=O)CN(C)C)nc2[nH]ccc12 (10 µM)
1: EGFR | EGFR_G719S
0: all other assays above

C=CC(=O)Nc1ccc(CN2C(=O)N(c3cc(OC)cc(OC)c3)Cc3cnc(Nc4ccc(N5CCN(C)CC5)cc4)nc32)cc1 (2.5 µM)
0: all assays above

C=CC(=O)Nc1cccc(Nc2nc(Nc3ccc(N4CCN(C(C)=O)CC4)cc3OC)ncc2C(F)(F)F)c1 [Rociletinib hydrobromide] (10 µM)
0: all assays above

Oc1cc2c(cc1O)C(Cc1cccc3ccccc13)NCC2 (stereo not given) (10 µM)
0: all assays above

CC#CC(=O)N1CC[C@@H](n2c(=O)n(-c3ccc(Oc4ccccc4)cc3)c3c(N)ncnc32)C1 [Tirabrutinib] (10 µM)
0: all assays above

CC(C)(O)CNc1ncc(-c2ccnc(Nc3ccnc(Cl)c3)n2)c(CC2CC2)n1 (2.5 µM)
1: DYRK2
0: all other assays above
